# Measured values published in the supplement of paper PMC6411743.
# Chains of the proteins cited; added tags and fusions are not shown. Lines headed by an entry give the natural chain unless they say otherwise; changes in a name come on top.
# UniProt Q13190: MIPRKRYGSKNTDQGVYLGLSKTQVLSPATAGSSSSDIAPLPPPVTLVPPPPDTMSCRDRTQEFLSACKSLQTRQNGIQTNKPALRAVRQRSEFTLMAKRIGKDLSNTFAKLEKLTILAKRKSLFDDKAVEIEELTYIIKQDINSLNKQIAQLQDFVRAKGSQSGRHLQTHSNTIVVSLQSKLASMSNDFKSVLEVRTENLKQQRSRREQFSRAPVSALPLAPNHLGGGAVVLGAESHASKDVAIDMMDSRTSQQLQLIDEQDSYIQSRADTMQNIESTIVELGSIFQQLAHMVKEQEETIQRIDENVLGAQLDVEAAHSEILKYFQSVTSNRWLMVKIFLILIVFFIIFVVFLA
# UniProt Q14690: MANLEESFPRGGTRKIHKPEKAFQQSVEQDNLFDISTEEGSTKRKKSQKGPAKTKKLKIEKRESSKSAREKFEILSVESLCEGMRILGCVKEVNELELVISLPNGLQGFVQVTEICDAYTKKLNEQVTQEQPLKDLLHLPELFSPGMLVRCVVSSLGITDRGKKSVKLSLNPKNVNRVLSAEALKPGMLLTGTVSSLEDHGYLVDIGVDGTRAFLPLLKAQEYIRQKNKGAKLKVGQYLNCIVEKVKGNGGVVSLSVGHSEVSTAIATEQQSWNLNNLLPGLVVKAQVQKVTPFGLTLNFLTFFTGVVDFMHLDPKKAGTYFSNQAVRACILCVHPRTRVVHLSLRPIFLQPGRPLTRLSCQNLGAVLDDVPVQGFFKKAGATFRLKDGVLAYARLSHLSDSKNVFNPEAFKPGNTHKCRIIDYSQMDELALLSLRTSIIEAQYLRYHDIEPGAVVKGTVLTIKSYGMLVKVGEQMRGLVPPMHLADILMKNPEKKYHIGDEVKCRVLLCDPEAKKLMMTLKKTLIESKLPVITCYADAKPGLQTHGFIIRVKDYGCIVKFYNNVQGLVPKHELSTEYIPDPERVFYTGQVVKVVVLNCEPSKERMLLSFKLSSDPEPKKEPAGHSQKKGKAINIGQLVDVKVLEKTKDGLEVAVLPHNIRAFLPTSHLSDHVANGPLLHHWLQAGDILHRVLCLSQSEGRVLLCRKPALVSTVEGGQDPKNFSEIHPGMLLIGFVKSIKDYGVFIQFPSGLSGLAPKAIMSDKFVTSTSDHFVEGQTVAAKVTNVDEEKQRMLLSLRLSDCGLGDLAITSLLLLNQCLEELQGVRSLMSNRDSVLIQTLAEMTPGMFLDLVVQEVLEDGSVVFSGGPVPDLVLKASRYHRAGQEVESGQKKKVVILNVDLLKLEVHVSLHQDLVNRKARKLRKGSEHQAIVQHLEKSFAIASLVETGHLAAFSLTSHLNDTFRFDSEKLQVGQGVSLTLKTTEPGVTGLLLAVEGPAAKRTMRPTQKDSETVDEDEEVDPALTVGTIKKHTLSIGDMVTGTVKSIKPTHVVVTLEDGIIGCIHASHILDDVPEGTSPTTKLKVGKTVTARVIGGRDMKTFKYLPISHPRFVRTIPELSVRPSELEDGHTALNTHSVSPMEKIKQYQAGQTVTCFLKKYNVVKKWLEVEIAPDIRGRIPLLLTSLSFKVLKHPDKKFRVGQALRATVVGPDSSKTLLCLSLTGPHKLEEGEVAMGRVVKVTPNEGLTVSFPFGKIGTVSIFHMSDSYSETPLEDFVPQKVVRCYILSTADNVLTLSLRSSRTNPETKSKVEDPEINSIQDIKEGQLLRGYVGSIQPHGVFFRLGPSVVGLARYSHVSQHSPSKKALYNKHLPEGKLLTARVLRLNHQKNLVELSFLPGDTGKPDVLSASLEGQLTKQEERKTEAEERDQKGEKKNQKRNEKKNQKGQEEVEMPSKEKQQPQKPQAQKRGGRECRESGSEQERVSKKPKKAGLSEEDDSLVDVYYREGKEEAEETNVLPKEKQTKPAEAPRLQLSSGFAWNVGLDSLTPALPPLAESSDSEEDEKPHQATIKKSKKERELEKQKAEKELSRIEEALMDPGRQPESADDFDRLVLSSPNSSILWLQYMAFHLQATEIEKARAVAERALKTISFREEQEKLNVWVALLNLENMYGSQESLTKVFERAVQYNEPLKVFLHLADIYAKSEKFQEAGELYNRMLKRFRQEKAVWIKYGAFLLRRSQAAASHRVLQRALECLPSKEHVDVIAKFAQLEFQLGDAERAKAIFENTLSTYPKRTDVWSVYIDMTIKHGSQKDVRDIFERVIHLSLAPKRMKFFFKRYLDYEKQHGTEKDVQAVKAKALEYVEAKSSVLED
# UniProt Q13541: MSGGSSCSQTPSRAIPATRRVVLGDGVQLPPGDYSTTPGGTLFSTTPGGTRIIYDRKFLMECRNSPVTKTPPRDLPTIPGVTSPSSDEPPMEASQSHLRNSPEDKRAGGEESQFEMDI
# UniProt Q13094: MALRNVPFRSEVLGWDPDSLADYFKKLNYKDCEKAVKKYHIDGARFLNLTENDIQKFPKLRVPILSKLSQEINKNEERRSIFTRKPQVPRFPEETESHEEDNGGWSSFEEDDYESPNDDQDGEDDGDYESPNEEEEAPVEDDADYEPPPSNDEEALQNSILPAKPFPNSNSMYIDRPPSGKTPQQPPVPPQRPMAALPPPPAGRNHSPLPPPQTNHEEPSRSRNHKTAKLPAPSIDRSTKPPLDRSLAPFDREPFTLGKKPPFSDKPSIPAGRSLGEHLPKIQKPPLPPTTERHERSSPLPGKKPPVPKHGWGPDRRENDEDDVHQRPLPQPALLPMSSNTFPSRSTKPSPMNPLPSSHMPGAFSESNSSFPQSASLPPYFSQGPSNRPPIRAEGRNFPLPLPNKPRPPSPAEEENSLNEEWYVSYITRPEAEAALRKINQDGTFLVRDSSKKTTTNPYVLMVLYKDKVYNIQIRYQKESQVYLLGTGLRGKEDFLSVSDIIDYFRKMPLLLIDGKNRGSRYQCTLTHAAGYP
# UniProt Q13619, whole entry: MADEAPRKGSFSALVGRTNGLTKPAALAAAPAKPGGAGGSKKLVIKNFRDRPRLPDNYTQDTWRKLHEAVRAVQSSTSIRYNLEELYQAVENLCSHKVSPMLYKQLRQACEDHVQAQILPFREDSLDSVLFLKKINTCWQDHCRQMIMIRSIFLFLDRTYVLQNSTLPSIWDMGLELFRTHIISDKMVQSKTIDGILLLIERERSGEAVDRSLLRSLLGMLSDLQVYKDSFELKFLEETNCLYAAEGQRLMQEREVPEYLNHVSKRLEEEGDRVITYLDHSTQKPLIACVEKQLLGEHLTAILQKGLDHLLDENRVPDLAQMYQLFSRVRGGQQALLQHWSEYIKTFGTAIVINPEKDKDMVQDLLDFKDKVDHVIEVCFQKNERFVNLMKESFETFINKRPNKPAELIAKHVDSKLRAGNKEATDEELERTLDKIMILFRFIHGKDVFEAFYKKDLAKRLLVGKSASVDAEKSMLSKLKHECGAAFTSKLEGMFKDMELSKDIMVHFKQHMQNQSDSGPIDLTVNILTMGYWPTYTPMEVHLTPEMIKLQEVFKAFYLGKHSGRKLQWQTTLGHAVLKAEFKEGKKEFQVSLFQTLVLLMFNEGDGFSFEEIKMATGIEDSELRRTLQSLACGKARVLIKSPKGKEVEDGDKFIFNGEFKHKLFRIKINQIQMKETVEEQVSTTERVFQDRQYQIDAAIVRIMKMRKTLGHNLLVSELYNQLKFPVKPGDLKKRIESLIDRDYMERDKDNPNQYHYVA
# UniProt Q13907: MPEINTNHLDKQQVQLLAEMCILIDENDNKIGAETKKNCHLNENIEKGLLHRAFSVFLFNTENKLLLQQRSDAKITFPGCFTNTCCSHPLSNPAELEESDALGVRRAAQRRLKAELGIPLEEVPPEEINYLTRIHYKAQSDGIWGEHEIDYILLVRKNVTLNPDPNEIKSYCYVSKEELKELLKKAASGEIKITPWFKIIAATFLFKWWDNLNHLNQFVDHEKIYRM
# UniProt Q14011: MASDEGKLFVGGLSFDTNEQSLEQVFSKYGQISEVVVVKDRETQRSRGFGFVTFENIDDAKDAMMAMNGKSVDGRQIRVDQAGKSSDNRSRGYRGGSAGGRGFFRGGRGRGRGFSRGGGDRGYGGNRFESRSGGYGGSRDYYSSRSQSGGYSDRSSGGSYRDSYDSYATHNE
# UniProt Q13045: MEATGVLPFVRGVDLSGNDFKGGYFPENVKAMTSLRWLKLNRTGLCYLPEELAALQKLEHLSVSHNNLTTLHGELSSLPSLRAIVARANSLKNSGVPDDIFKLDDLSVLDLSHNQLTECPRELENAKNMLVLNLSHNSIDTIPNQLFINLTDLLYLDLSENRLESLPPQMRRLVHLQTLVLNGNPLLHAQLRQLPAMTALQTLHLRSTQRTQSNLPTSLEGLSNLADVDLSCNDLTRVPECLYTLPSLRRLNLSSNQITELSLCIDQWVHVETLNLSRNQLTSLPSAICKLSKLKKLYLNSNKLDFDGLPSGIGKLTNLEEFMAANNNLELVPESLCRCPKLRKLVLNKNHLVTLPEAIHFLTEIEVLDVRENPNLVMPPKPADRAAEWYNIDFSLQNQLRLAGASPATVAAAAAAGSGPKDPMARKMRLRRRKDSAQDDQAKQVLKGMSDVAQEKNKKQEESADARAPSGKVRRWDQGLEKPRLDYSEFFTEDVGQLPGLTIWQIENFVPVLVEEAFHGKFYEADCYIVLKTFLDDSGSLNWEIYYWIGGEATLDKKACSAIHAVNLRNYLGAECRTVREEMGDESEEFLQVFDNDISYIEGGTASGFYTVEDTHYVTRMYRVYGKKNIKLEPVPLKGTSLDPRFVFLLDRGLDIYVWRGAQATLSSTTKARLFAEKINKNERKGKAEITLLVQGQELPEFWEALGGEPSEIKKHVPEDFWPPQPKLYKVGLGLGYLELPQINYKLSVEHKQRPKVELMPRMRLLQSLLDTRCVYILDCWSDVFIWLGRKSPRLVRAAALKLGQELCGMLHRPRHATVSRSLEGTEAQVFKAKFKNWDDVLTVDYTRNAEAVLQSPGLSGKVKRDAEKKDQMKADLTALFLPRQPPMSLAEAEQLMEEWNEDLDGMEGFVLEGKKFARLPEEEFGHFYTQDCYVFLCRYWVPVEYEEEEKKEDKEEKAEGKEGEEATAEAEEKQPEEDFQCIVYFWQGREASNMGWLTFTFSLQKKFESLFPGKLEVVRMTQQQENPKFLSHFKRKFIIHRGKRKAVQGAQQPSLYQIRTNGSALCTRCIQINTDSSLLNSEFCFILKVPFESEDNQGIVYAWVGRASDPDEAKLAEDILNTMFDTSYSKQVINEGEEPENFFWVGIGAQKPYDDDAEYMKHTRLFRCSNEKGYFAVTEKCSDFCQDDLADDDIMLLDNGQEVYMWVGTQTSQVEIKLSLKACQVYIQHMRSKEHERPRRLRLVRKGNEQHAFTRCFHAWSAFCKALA
# UniProt Q14671: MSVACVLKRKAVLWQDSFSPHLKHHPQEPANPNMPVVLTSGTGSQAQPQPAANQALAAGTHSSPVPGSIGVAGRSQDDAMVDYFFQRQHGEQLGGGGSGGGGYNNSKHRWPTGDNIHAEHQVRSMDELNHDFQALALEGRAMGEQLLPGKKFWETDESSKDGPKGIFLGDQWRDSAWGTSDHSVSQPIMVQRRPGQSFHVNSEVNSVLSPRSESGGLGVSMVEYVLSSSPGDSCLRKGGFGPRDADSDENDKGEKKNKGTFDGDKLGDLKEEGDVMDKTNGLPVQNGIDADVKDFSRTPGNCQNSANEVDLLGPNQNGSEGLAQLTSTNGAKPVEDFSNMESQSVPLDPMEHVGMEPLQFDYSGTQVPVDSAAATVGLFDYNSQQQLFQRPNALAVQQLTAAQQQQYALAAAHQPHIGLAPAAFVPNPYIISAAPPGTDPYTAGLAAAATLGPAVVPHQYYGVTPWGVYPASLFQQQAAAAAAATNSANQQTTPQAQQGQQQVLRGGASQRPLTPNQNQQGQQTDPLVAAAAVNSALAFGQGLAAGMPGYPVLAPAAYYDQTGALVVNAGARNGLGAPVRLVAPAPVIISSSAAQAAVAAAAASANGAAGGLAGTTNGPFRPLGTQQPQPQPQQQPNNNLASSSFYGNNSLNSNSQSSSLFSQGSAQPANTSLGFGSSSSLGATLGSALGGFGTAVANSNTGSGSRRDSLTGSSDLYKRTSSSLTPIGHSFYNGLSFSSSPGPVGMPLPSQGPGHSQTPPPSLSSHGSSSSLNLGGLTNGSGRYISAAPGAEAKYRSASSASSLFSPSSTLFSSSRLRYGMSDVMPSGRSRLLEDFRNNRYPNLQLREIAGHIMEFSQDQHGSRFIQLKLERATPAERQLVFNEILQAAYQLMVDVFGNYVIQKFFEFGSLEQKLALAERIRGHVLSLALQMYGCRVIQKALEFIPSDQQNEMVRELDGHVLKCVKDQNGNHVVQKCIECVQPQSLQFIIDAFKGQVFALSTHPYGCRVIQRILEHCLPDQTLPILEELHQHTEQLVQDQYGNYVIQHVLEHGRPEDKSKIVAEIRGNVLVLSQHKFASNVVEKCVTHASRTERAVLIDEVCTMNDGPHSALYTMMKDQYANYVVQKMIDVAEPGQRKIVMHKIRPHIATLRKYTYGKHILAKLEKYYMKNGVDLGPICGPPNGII
# ± gives the standard deviation of the averaged measurements. Only a part is listed here, and it is no random draw. Small differences around the control level are noise.
# Compound: Nc1ncnc2c1ncn2[C@@H]1O[C@H](COP(=O)(O)OP(=O)(O)NP(=O)(O)O)[C@@H](O)[C@H]1O [adenylyl imidodiphosphate]
# Assay: NP40-soluble protein abundance relative to vehicle (solubility fold change) (ratio); higher = more soluble protein in presence of AMP-PNP
# Conditions: concentration: 0.1mM
# Outline: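 In three independent experiments, Jurkat crude lysate made by Dounce homogenisation was treated for 10 min at room temperature and then 3 min at 37 °C with eight concentrations ranging from 0.1 to 10 mM. It was then solubilised with 0.8% NP40 plus benzonase for 60 min at 4 °C and ultracentrifuged. The supernatant was TMT-labelled for LC-MS/MS, and each value is the fold change against the detergent-processed vehicle for the same replicate, using vsn-normalised intensities.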
row,Target,NP40-soluble protein abundance
1,PPIL2 (UniProt Q13356),0.991 ± 0.034
2,UniProt Q13247 and related entries,1.02 ± 0.034
3,UniProt Q14161 and related entries,1.02 ± 0.03
4,UniProt Q12789 and related entries,1.02 ± 0.018
5,UniProt Q12933 and related entries,0.968 ± 0.014
6,UniProt Q13105 and related entries,1 ± 0.03
7,UniProt Q13190 and related entries,1.045 ± 0.01
8,TRIM28 (UniProt Q13263),1.01 ± 0.014
9,UniProt Q14693 and related entries,0.991 ± 0.017
10,PDCD11 (UniProt Q14690),1.033 ± 0.0036
11,EIF4EBP1 (UniProt Q13541),0.9758 ± 0.007
12,UniProt Q13951 and related entries,0.965 ± 0.038

# Same assay, conditions: concentration: 0.5mM
row,Target,NP40-soluble protein abundance
1,UniProt Q13505 and related entries,1.02 ± 0.068
2,NNT (UniProt Q13423),1.001 ± 0.0048
3,LCP2 (UniProt Q13094),0.997 ± 0.057
4,RBL2 (UniProt Q08999),0.956 ± 0.026
5,CUL4A (UniProt Q13619),1 ± 0.026
6,PSME4 (UniProt Q14997),0.98 ± 0.099
7,SAFB2 (UniProt Q14151),1.07 ± 0.05
8,IDI1 (UniProt Q13907),1.01 ± 0.051
9,UniProt Q10589 and related entries,1.02 ± 0.018
10,POLA2 (UniProt Q14181),1 ± 0.022
11,UniProt Q13535 and related entries,0.989 ± 0.034
12,WDR43 (UniProt Q15061),0.999 ± 0.019
13,EP300 (UniProt Q09472),0.995 ± 0.01
14,UniProt Q12873 and related entries,1.03 ± 0.019
15,UniProt Q13330 and related entries,1.02 ± 0.028
16,EIF3A (UniProt Q14152),1.03 ± 0.037
17,UniProt Q14C86-6|Q14C86 and related entries,0.984 ± 0.018
18,UniProt Q13308 and related entries,1.02 ± 0.06
19,FHL3 (UniProt Q13643),0.9596 ± 0.0052

row,Target,NP40-soluble protein abundance
1,UniProt Q12797 and related entries,0.976 ± 0.045
2,CIRBP (UniProt Q14011),1.05 ± 0.076
3,UniProt Q13564 and related entries,0.998 ± 0.079
4,UniProt Q14697 and related entries,0.984 ± 0.037
5,UniProt Q13045 and related entries,1.02 ± 0.027
6,UniProt Q14671 and related entries,0.997 ± 0.038
7,SNX1 (UniProt Q13596),1.04 ± 0.015
8,PPIL2 (UniProt Q13356),0.9932 ± 0.0087
9,UniProt Q13247 and related entries,1.01 ± 0.056
10,UniProt Q14161 and related entries,1.01 ± 0.046
11,UniProt Q12789 and related entries,0.9875 ± 0.0064
12,UniProt Q12933 and related entries,0.961 ± 0.026
13,UniProt Q13105 and related entries,0.976 ± 0.031
14,UniProt Q13190 and related entries,0.995 ± 0.023
15,TRIM28 (UniProt Q13263),1.01 ± 0.042
16,UniProt Q14693 and related entries,1.01 ± 0.022
17,PDCD11 (UniProt Q14690),1 ± 0.011
18,EIF4EBP1 (UniProt Q13541),1.009 ± 0.006
19,UniProt Q13951 and related entries,1.01 ± 0.089
